Test results from paper PMC12141716.
For part of these data: Weaker means in comparison with the reference protein, sequence or condition of that experiment. For part of these data: Protein sequences can lack the tags named with them. For part of these data: The exact form of at least one protein or probe is not confirmed. For part of these data: At least one result comes from cells or an extract, where the contact may be indirect. For part of these data: Negatives hold for the conditions tested.

By UniProt entry, the sequences of proteins in these tests, tags left out. Where a name states a change or a piece, a line headed by the entry shows the natural chain unless it says otherwise.
UniProt Q4J973: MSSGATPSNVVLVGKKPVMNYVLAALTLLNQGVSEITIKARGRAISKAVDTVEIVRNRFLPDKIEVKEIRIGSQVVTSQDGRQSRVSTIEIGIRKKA

Legend:
[1] = biological target: T1, UBP (Saci_0847) (Sulfolobus acidocaldarius) (UniProt Q4JAG5); assay: DNA affinity pull-down, mass spectrometry; conditions: 5'-biotin on bottom strand; protein in an extract; label: biotin
T1 sequence (looked up, limits assumed): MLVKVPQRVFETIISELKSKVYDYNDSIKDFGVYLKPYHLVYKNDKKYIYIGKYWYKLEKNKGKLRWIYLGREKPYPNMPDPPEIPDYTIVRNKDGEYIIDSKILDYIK

[2] = biological target: Alba (Sulfolobus acidocaldarius) (UniProt Q4J973); assay: DNA affinity pull-down, mass spectrometry; conditions: 5'-biotin on bottom strand; protein in an extract; label: biotin
[3] = biological target: T2, UBP (Sulfolobus islandicus REY15A) (UniProt F0NFD3); assay: EMSA; conditions: EMSA: 50 mM K-acetate, 20 mM Tris-acetate, 10 mM Mg-acetate, 1 mM DTT, pH 7.9, 5-10% glycerol, 70 mM NaCl, 800 ng salmon sperm DNA per 10 ul, room temperature 10 min, recombinant protein, residues 1-111, label: 5'-32P
T2 sequence (looked up): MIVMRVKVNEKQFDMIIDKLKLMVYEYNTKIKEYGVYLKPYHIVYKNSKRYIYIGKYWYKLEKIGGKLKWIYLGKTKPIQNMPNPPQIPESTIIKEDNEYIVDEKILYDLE

Sequence	binding result [1]	binding result [2]	binding result ([3]; greatly reduced)	binding result ([3]; complex yield reduced, unbound DNA profile similar to WT)
GCTTGGTTTAATTATACAAACTCAATATTT (double strand) [UCM30]	binds	binds		
GCTTGGTTTACGGCGCACCCATCAATATTT (double strand) [CTRL30 (mutated ucm)]	no binding	binds		
TTGTTATAATTAGATAACCATGCGCACCCCTAATTGTATAAGAATGAAAT (double strand) [M7 50 bp (P11/P12)]			binds more weakly	
TTGTTATAATTCTCGCCAACGTATACAAAAGAATTGTATAAGAATGAAAT (double strand) [M6 50 bp (P9/P10)]				binds more weakly
